Results of single-concentration screens

Source: ChEMBL document CHEMBL3988442, “University of Dundee, Small-Polar-MMV Screening Library” (2021).

Each number is a percent effect as filed.
The controls that fix the scale are not given in the record; negative values are as filed.
This is an unselected part of the compounds tested.

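Whole-parasite assay of Trypanosoma brucei over 72 hours; the read-out is not stated. Tested at 30 µM. Higher reads as stronger inhibition (inferred: compounds with an IC50 in retests scored well above the rest). Values scatter widely below zero; nearly all retest evidence comes from the higher of the two concentrations used. Size under these conditions: about 64,000 compounds, about 940 of them at 50% or above in at least one test.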

| structure | percent effect |
|---|---|
| `CN1Cc2ccccc2CC2(CCN(CCO)CC2)C1=O.O=C(O)C(F)(F)F` | -39.22% |
| `Cc1nc2c(C)cccc2cc1C(=O)N1CCC2(CCCNC2)C1` (stereo not drawn) | 26.61% |
| `[H][C@@]12CCCO[C@]1([H])[C@H](OCc1cccnc1)CN2C(=O)c1ccc(C)o1` | 5.827% |
| `O=C(Cc1ccon1)N(CCC(F)(F)F)C1CCCC1` | -31.97% |
| `CC(C)Cn1cc(NCc2cscn2)cn1` | -0.2143% |
| `OC1(CN2CCCC2)CCCN(Cc2cnc(-c3ccccc3)nc2)C1` (stereo not drawn) | -45.22% |
| `CSCC(=O)N1C[C@@H](C)[C@](O)(C(C)C)C1` | -37.84% |
| `CC1(C)CC(N(Cc2cccnc2)Cc2cccnc2)CC(C)(C)N1.O=C(O)CC(O)(CC(=O)O)C(=O)O` | 13.11% |
| `Cn1c(=O)n(C)c2cc(C3SCC(=O)Nc4ccsc43)ccc21` (stereo not drawn) | 32.34% |
| `CC(SCC(=O)N(C)CC(=O)NC1CC1)c1ccccc1F` (stereo not drawn) | -1.145% |
| `Cc1ncc2c(n1)CN(CC(=O)Nc1ccc(Cl)cn1)CC2` | 15.3% |
| `CCN(C)S(=O)(=O)c1ccc(Cl)cc1C#N` | -39.04% |
| `CC(CCc1ncnn1Cc1cccc(Cl)c1)N1CCCC1` (stereo not drawn) | -102.5% |
| `Cc1cc(C)n(CC(=O)N2CCC(c3cc4cccnc4[nH]3)CC2)n1` | -30.59% |
| `COCCN(C)Cc1ccc(OC)c(OC(F)F)c1` | -21.46% |
| `O=C(C[S+]([O-])Cc1cccc(F)c1)NC1CCCC1` (stereo not drawn) | -10.86% |
| `O=C(Nc1cnc(C2CC2)nc1)N1CCCC1` | -12.93% |
| `O=C(Cn1cccn1)N(CCO)CCSc1ccc(Cl)cc1` | -0.4755% |
| `CN(C)C(=O)COCc1ncn2c1CN(c1ncc(F)cn1)CCC2` | -17.1% |
| `CCNC(=O)c1ccnc(N2CCCC(COc3ccccc3C)C2)c1` (stereo not drawn) | -60.08% |
| `Clc1ccc(CN2CCCC(Cn3cncn3)C2)c2ncccc12` (stereo not drawn) | -24.17% |
| `Cc1ccc(CNCC(C)Oc2ccccn2)cc1.Cl` (stereo not drawn) | -21.59% |
| `CCn1ccc(-c2cc(C(=O)O)n3nc(C(F)(F)F)c(Br)c3n2)n1` | -11.14% |
| `CCc1nsc(N2CCCN(C(=O)c3ccc(OC)cc3)CC2)n1` | -34.35% |
| `CN1CCOC(CNCc2cccc(OCC(F)(F)F)c2)C1` (stereo not drawn) | -48.86% |
| `COc1ccc(O)c(C(=O)NCC2CCCN(C3CCOCC3)C2)c1` (stereo not drawn) | -54.68% |
| `O=C(O)C(F)(F)F.[H][C@@]12COC[C@]1(CNC(=O)N1CCCC1)CN(Cc1cc(C)on1)C2` | -3.241% |
| `Cc1cc(-c2cnn(CCNC(=O)c3cc[nH]n3)c2C2CC2)on1` | -2.458% |
| `CCc1nc(CN2CCCN(C(=O)CC3CCCC3)CC2)cs1` | 21.19% |
| `CC(c1ccco1)N(C)C(=O)NCCOc1ccc(C#N)cc1` (stereo not drawn) | -9.525% |
| `CCNC(=O)NC(=O)CN1CCC(c2cccc(F)c2)C1` (stereo not drawn) | 10.39% |
| `CC(=O)N1CCCCC1c1ncnn1-c1ccc2nc(C)sc2c1` (stereo not drawn) | -27.5% |
| `CC(C)(NCC(=O)NCC1CC1)c1ccc2c(c1)OCCO2` | -4.155% |
| `CCC(O)CNc1ccc(-c2nc(CC(C)C)no2)cn1` (stereo not drawn) | -37.17% |
| `O=C(O)C(F)(F)F.[H][C@]12CCCN(Cc3ccc(OC)cc3)[C@@]1([H])CN(C(=O)c1ccco1)C2` | 5.381% |
| `CC(C)c1nccc(CN2CCC(O)(CN3CCCCC3)C2)n1` (stereo not drawn) | 67.93% |
| `CN1CC(C(=O)N(C)Cc2cc(-c3cccnc3)no2)NC1=O` (stereo not drawn) | -18% |
| `COC(=O)N1CCC(NC2CCSCC2)C1` (stereo not drawn) | -47.52% |
| `COc1cc(N2CCC3(CC2)CN(CCO)c2ccccc23)ncn1` | -3.984% |
| `Cn1ccc(C(=O)NCCOc2ccc3c(c2)CCC3)cc1=O` | 4.076% |
| `O=C(c1n[nH]c2c1CCC2)N1CCCC1c1nc(-c2ccccn2)no1` (stereo not drawn) | 2.088% |
| `CCc1ncc2c(n1)CN(c1nccc(C3CCCC3)n1)C2` | -8.436% |
| `Cl.Cl.O[C@@H]1C[C@@](CNCc2cccc(Cl)c2)(COc2cnccn2)C[C@@H]1O` | -7.59% |
| `O=C(Nc1ccccc1)C1CCCN(C(=O)Cn2cncn2)C1` (stereo not drawn) | -14.95% |
| `CCn1cnnc1CNC(=O)N1CCN(c2cccs2)CC1` | 7.602% |
| `O=C(O)C(F)(F)F.[H][C@@]12CCN(c3ccncn3)C[C@]1([H])O[C@@H](C(=O)NCc1ccco1)C2` | 29.36% |
| `CCc1ncc2c(n1)CN(c1cc(NC3CC3)nc(N)n1)C2` | -92.68% |
| `CC(=O)N1CCCn2nc(CNS(=O)(=O)N3CCCCCC3)cc2C1` | -5.109% |
| `CC(C)N1CCCC(C(=O)NCCc2csc(-c3ccncc3)n2)C1` (stereo not drawn) | -40.14% |
| `Cc1cc(NCc2cc3n(n2)CCCN(C(=O)C2CCC2)C3)ncn1` | -27.18% |
| `Cc1nn(C)c(Cl)c1C1CCCN1Cc1nc(C2CC2)no1` (stereo not drawn) | -8.22% |
| `COCCC1COC2(CCN(C(=O)Cc3ccccc3)CC2)C1` (stereo not drawn) | -71.5% |
| `COCCn1ccc2c(C(=O)NCC3CCCO3)cccc21` (stereo not drawn) | 2.125% |
| `CCN(CC)c1ncc(CNC2CCc3nc(C)nn3C2)s1` (stereo not drawn) | -20.22% |
| `CNC(=O)C1Cn2ccnc2C2(CCN(C(=O)c3ccccn3)CC2)O1` (stereo not drawn) | -86.25% |
| `CCOC(=O)CNc1nc(C(C)(C)C)nc2c1cnn2C` | -2.165% |
| `CCN(C(=O)Cn1cc(Cl)cn1)c1ccccc1` | -37.32% |
| `O=C(CN1CCCCCC1=O)NC1CCc2nccn2C1` (stereo not drawn) | -136.5% |
| `CC(=O)Nc1nc(C(=O)NCCOc2ccccc2F)cs1` | -41.52% |
| `CC(=O)c1nn(-c2ccccc2)c(C)c1C(C)=O` | 1.466% |
| `CN1CCC(n2nc(Cc3cccc(Cl)c3)nc2Cn2cnnn2)CC1` | -3.571% |
| `CCOc1ncccc1CNC(=O)NC(C)Cn1cccn1` (stereo not drawn) | 0.8601% |
| `O=C1CC(c2ccc3ccccc3n2)c2c(n[nH]c2C2CCC2)N1` (stereo not drawn) | -24.41% |
| `O=C1NCCCCC1Sc1ccccc1F` (stereo not drawn) | -50.29% |
| `CCc1ncncc1C(=O)N1CCCN(Cc2ccc(C#N)cc2)CC1` | 19.34% |
| `CC(=O)N(C)Cc1ccccc1NC(=O)N(C)CCc1cccs1` | -9.008% |
| `Cc1cccc(CN2CCCC(O)(CNCc3cccc(F)c3)C2=O)c1` (stereo not drawn) | 11.23% |
| `CC(C)NC(=O)NCCn1cnc(C2CCCC2)cc1=O` | 6.093% |
| `COc1nn(C)cc1C(=O)NCC(=O)NCc1cccnc1` | 4.391% |
| `OC(COCc1ccc2c(c1)OCO2)CN1CC(n2cccn2)C1` (stereo not drawn) | 7.558% |
| `c1ccc(Cc2noc(CN3CCCC(Cn4cncn4)C3)n2)cc1` (stereo not drawn) | 10.73% |
| `Cn1ccnc1CN1CCC(CCC(=O)Nc2ccccc2Cl)CC1` | -24.27% |
| `CN1CC(=O)N(c2cccc(F)c2)CC12CCN(S(=O)(=O)C1CC1)C2.O=C(O)C(F)(F)F` (stereo not drawn) | -11.02% |
| `CN(C)c1cnnc(N2CCN(C(=O)CCC3CCCCC3)CC2)c1` | 3.445% |
| `Cn1ccnc1SCCNC(=O)c1c[nH]nc1C1CCCCC1` | -51.08% |
| `CN(C)c1ncc(-c2cncnc2)c(C2CNCCO2)n1.Cl` (stereo not drawn) | -11.69% |
| `O=C(Cc1ccc2c(c1)OCO2)N1CCCN(c2nccs2)CC1` | -20.3% |
| `O=C(NCc1nnc2n1CCC2)N(Cc1ccco1)C1CC1` | -8.16% |
| `COCCC(=O)N1CCCC(c2noc3nc(C)cc(C(F)(F)F)c23)C1` (stereo not drawn) | 8.567% |

The last 5 entries again:

- Cn1ccnc1SCCNC(=O)c1c[nH]nc1C1CCCCC1 | -51.08%
- CN(C)c1ncc(-c2cncnc2)c(C2CNCCO2)n1.Cl (stereo not drawn) | -11.69%
- O=C(Cc1ccc2c(c1)OCO2)N1CCCN(c2nccs2)CC1 | -20.3%
- O=C(NCc1nnc2n1CCC2)N(Cc1ccco1)C1CC1 | -8.16%
- COCCC(=O)N1CCCC(c2noc3nc(C)cc(C(F)(F)F)c23)C1 (stereo not drawn) | 8.567%